The values below come from publication PMC10019781.

Amino acid sequences for entries named in this document (tags omitted).
UniProt Q8I4X0: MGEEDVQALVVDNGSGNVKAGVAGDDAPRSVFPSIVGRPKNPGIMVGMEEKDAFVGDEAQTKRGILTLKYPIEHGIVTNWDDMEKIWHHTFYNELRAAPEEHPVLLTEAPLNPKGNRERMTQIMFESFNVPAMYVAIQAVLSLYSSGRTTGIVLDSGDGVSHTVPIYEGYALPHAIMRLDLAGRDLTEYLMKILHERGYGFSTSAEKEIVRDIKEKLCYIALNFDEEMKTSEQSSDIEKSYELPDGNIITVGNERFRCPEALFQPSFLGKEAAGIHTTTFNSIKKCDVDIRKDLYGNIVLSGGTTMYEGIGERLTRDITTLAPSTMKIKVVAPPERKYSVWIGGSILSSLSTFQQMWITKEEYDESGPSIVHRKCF

In assay [1] the target is Plasmodium actin I (UniProt Q8I4X0). The assay is described as follows: negative-stain electron microscopy; polymerized 16 h at 4°C in F-buffer at 20 uM, diluted in F buffer, 2% uranyl acetate; both purified.
Assay [2] shares this target. Briefly: pyrene-actin polymerization assay; spontaneous polymerization, pyrene-labelled and unlabelled actin 1:3, 0 to 7 uM, started with 1x F-buffer (4 mM MgCl2, 50 mM KCl, 10 mM EGTA pH 8), 20°C, 2 h; both purified.

No constants are given. Whether binding was seen depends on the method and setting. Some entries that bind do so weakly or less than the wild type.

As for “Plasmodium actin I (from UniProt Q8I4X0 1-376)”, the binding entry in assay [1] and in assay [2] was “binds” in each case.
